Data taken from patent publication US20060281675A1.
No constants are given. Whether binding was seen depends on the method and setting. Some entries that bind do so weakly or less than the wild type.

By UniProt entry, the sequences of proteins in these tests, tags left out. Where a name states a change or a piece, a line headed by the entry shows the natural chain unless it says otherwise.
UniProt P01242: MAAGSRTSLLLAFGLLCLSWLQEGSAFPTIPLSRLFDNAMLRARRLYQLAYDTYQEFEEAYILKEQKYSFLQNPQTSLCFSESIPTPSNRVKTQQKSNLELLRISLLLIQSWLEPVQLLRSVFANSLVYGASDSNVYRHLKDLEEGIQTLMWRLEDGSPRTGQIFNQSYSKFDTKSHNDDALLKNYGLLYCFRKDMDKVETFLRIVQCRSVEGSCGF

T1: prolactin receptor in ovine hepatic microsomal membranes (ovine) (UniProt O46561)
T1 sequence (looked up): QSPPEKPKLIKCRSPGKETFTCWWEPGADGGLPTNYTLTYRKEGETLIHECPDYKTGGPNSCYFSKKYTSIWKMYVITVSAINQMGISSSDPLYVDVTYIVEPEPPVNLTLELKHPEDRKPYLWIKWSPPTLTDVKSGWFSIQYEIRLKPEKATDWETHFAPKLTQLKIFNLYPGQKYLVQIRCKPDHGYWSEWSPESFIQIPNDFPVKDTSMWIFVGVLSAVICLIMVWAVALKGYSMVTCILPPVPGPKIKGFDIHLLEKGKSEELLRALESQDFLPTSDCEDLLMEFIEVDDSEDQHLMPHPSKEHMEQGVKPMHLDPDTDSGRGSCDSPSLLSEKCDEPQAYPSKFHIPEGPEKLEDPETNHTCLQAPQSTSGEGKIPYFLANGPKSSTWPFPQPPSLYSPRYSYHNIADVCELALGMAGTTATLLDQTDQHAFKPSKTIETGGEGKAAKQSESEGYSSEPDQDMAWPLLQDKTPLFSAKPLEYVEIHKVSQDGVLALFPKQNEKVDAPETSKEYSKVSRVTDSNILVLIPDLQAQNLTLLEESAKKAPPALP


Legend:
[1] = molecular target: T1, prolactin receptor in ovine hepatic microsomal membranes (ovine); assay: competition with 125I-rhGH, ovine hepatic microsomal membranes
[2] = molecular target: T1, prolactin receptor in ovine hepatic microsomal membranes (ovine); assay: competitive radioreceptor assay, ovine hepatic microsomal membranes

binding [1]	binding [2]	Molecule
binds	binds	22 kDa hGH-V (recombinant human 22 kDa placental growth hormone) (from UniProt P01242 27-217) (ligand)
binds	–	recombinant bovine growth hormone (ligand, UniProt P01246 27-217, looked up, 125I label (lactoperoxidase method) where used as the radioligand) AFPAMSLSGLFANAVLRAQHLHQLAADTFKEFERTYIPEGQRYSIQNTQVAFCFSETIPAPTGKNEAQQKSDLELLRISLLLIQSWLGPLQFLSRVFTNSLVFGTSDRVYEKLKDLEEGILALMRELEDGTPRAGQILKQTYDKFDTNMRSDDALLKNYGLLSCFRKDLHKTETYLRVMKCRRFGEASCAF
